Values are relative to the signal before dosing, not to a vehicle control; the signal also falls without drug.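 Fibroblast labels denote human fibroblasts, mainly primary ones from uterus (C12385, HUF), lung (H6013), bone (Hs27A), adrenal (HADF) and skin (WS1), plus mammary HMF and breast cancer-associated Hs343T. Cancer cells are basal-like or mesenchymal-like triple-negative breast cancer lines. A hit is a response shift exceeding 3x replicate standard deviation. The tissue of the other fibroblasts is not given here.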
Tested on: Hs578T
Experiment: relative JC-1 red fluorescence (viability) vs pre-drug, coculture with fibroblast (fraction); higher = more viable cancer cells
Procedure: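 JC-1 labelled TNBC cells cocultured 1:1 (1,500 cells each) with CellTrace Violet stained primary or stromal fibroblasts in 384-well plates in FluoroBrite medium, treated with one of 42 anticancer drugs at 0.1, 1, 10 or 100 uM. JC-1 red fluorescence (mitochondrial integrity in cancer cells only) was read by plate reader every 8 h for 72 h. Values are normalised to each well's pre-drug value. The stock of one drug was tenfold lower, so its dose labels may be too high.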

CC(=O)O[C@H]1C(=O)[C@@]2(C)[C@H]([C@H](OC(=O)c3ccccc3)[C@]3(O)C[C@H](OC(=O)[C@H](O)[C@@H](NC(=O)c4ccccc4)c4ccccc4)C(C)=C1C3(C)C)[C@]1(OC(C)=O)CO[C@@H]1C[C@@H]2O [Paclitaxel]
relative JC-1 red fluorescence
Details | 8 h | 16 h | 24 h | 32 h | 40 h | 48 h | 56 h | 64 h | 72 h
0.1 µM | 0.863 | 0.753 | 0.711 | 0.672 | 0.615 | 0.591 | 0.584 | 0.561 | 0.57
1 µM | 0.839 | 0.748 | 0.723 | 0.679 | 0.625 | 0.59 | 0.593 | 0.581 | 0.587
10 µM | 0.921 | 0.7992 | 0.724 | 0.661 | 0.59 | 0.554 | 0.542 | 0.529 | 0.543

relative JC-1 red fluorescence
Details | 8 h | 16 h | 24 h | 32 h | 40 h | 48 h | 56 h | 64 h | 72 h
0.1 µM, coculture fibroblast: C12385 | 0.855 | 0.725 | 0.676 | 0.547 | 0.468 | 0.444 | 0.43 | 0.448 | 0.462
0.1 µM, coculture fibroblast: H6013 | 0.918 | 0.813 | 0.775 | 0.698 | 0.622 | 0.629 | 0.628 | 0.64 | 0.634
0.1 µM, coculture fibroblast: H6019 | 0.79 | 0.651 | 0.639 | 0.543 | 0.5056 | 0.493 | 0.487 | 0.49 | 0.49
0.1 µM, coculture fibroblast: H6076 | 0.9264 | 0.827 | 0.761 | 0.713 | 0.643 | 0.64 | 0.626 | 0.641 | 0.659
0.1 µM, coculture fibroblast: H6231 | 0.906 | 0.804 | 0.683 | 0.677 | 0.597 | 0.586 | 0.552 | 0.533 | 0.526
0.1 µM, coculture fibroblast: HADF | 0.945 | 0.861 | 0.77 | 0.673 | 0.6 | 0.585 | 0.574 | 0.571 | 0.565
0.1 µM, coculture fibroblast: HCFa | 0.8762 | 0.7635 | 0.689 | 0.586 | 0.52 | 0.509 | 0.478 | 0.477 | 0.447
0.1 µM, coculture fibroblast: HCPF | 0.853 | 0.93 | 0.813 | 0.744 | 0.643 | 0.602 | 0.577 | 0.551 | 0.525
0.1 µM, coculture fibroblast: HHSteC | 0.914 | 0.789 | 0.706 | 0.599 | 0.532 | 0.504 | 0.489 | 0.483 | 0.457
0.1 µM, coculture fibroblast: HMF | 0.87 | 0.75 | 0.662 | 0.619 | 0.53 | 0.496 | 0.472 | 0.4701 | 0.4719
0.1 µM, coculture fibroblast: HPFa | 0.93204 | 0.876 | 0.743 | 0.633 | 0.5611 | 0.528 | 0.499 | 0.486 | 0.451
0.1 µM, coculture fibroblast: HUF | 0.8751 | 0.733 | 0.691 | 0.553 | 0.488 | 0.476 | 0.465 | 0.47 | 0.475
0.1 µM, coculture fibroblast: Hs27A | 0.859 | 0.777 | 0.678 | 0.572 | 0.525 | 0.529 | 0.52 | 0.524 | 0.508
0.1 µM, coculture fibroblast: Hs343T | 0.91 | 0.76 | 0.653 | 0.608 | 0.502 | 0.479 | 0.454 | 0.452 | 0.465
0.1 µM, coculture fibroblast: WS1 | 0.847 | 0.7119 | 0.68 | 0.579 | 0.504 | 0.486 | 0.455 | 0.465 | 0.473
1 µM, coculture fibroblast: C12385 | 0.8525 | 0.724 | 0.754 | 0.652 | 0.607 | 0.609 | 0.602 | 0.634 | 0.663
1 µM, coculture fibroblast: H6013 | 0.8936 | 0.838 | 0.8 | 0.741 | 0.692 | 0.696 | 0.709 | 0.736 | 0.728
1 µM, coculture fibroblast: H6019 | 0.783 | 0.681 | 0.671 | 0.571 | 0.536 | 0.53 | 0.522 | 0.524 | 0.52
1 µM, coculture fibroblast: H6076 | 0.866 | 0.808 | 0.755 | 0.708 | 0.645 | 0.647 | 0.656 | 0.658 | 0.684
1 µM, coculture fibroblast: H6231 | 0.872 | 0.907 | 0.704 | 0.617 | 0.516 | 0.477 | 0.433 | 0.411 | 0.414
1 µM, coculture fibroblast: HADF | 0.8931 | 0.774 | 0.687 | 0.584 | 0.505 | 0.493 | 0.467 | 0.478 | 0.465
1 µM, coculture fibroblast: HCFa | 0.874 | 0.778 | 0.705 | 0.589 | 0.499 | 0.476 | 0.452 | 0.444 | 0.426
1 µM, coculture fibroblast: HCPF | 0.898 | 0.781 | 0.6912 | 0.6313 | 0.525 | 0.503 | 0.504 | 0.475 | 0.483
1 µM, coculture fibroblast: HHSteC | 0.9221 | 0.8077 | 0.77 | 0.688 | 0.637 | 0.612 | 0.602 | 0.601 | 0.581
1 µM, coculture fibroblast: HMF | 0.869 | 0.744 | 0.685 | 0.611 | 0.497 | 0.475 | 0.466 | 0.458 | 0.466
1 µM, coculture fibroblast: HPFa | 0.9176 | 0.836 | 0.7476 | 0.628 | 0.559 | 0.538 | 0.51 | 0.504 | 0.4852
1 µM, coculture fibroblast: HUF | 0.8726 | 0.751 | 0.694 | 0.55 | 0.493 | 0.464 | 0.447 | 0.445 | 0.454
1 µM, coculture fibroblast: Hs27A | 0.888 | 0.8333 | 0.719 | 0.619 | 0.556 | 0.571 | 0.556 | 0.58 | 0.56
1 µM, coculture fibroblast: Hs343T | 0.8698 | 0.754 | 0.689 | 0.641 | 0.535 | 0.5006 | 0.4818 | 0.4813 | 0.5032
1 µM, coculture fibroblast: WS1 | 0.821 | 0.718 | 0.654 | 0.532 | 0.462 | 0.451 | 0.426 | 0.44 | 0.45
10 µM, coculture fibroblast: C12385 | 0.872 | 0.751 | 0.704 | 0.589 | 0.51 | 0.477 | 0.458 | 0.459 | 0.464
10 µM, coculture fibroblast: H6013 | 0.918 | 0.867 | 0.813 | 0.769 | 0.732 | 0.744 | 0.749 | 0.767 | 0.757
10 µM, coculture fibroblast: H6019 | 0.824 | 0.7129 | 0.72 | 0.631 | 0.604 | 0.595 | 0.586 | 0.585 | 0.577
10 µM, coculture fibroblast: H6076 | 0.9142 | 0.798 | 0.754 | 0.729 | 0.685 | 0.696 | 0.694 | 0.707 | 0.721
10 µM, coculture fibroblast: H6231 | 0.9246 | 0.815 | 0.677 | 0.625 | 0.528 | 0.503 | 0.447 | 0.425 | 0.409
10 µM, coculture fibroblast: HADF | 0.925 | 0.867 | 0.806 | 0.691 | 0.603 | 0.573 | 0.555 | 0.546 | 0.53
10 µM, coculture fibroblast: HCFa | 0.921 | 0.857 | 0.816 | 0.758 | 0.6858 | 0.691 | 0.6828 | 0.698 | 0.685
10 µM, coculture fibroblast: HCPF | 0.964 | 0.8435 | 0.745 | 0.677 | 0.563 | 0.524 | 0.497 | 0.459 | 0.442
10 µM, coculture fibroblast: HHSteC | 0.90929 | 0.806 | 0.704 | 0.606 | 0.541 | 0.519 | 0.509 | 0.508 | 0.499
10 µM, coculture fibroblast: HMF | 0.9102 | 0.776 | 0.699 | 0.65 | 0.566 | 0.537 | 0.513 | 0.499 | 0.495
10 µM, coculture fibroblast: HPFa | 0.9172 | 0.8666 | 0.717 | 0.573 | 0.499 | 0.46 | 0.442 | 0.434 | 0.415
10 µM, coculture fibroblast: HUF | 0.8828 | 0.737 | 0.709 | 0.572 | 0.494 | 0.459 | 0.435 | 0.437 | 0.441
10 µM, coculture fibroblast: Hs27A | 0.9106 | 0.8681 | 0.7894 | 0.6889 | 0.627 | 0.634 | 0.61 | 0.615 | 0.596
10 µM, coculture fibroblast: Hs343T | 0.968 | 0.812 | 0.716 | 0.629 | 0.499 | 0.451 | 0.409 | 0.395 | 0.391
10 µM, coculture fibroblast: WS1 | 0.8727 | 0.749 | 0.705 | 0.588 | 0.519 | 0.498 | 0.464 | 0.46 | 0.461
